Measured values published in article PMC7108782, “Direct interaction of metastasis-inducing S100P protein with tubulin causes enhanced cell migration without changes in cell adhesion” (Biochemical Journal, 2020).
Results are given in words; binding and its absence hold for the method and conditions named. Some binding calls cover weakened binding; strength is not graded here.

Legend:
[1] = target: T1, Non muscle myosin IIA peptide; experiment: far-Western, overlay or dot blot; gel overlay: equal molar proteins on 10% SDS-PAGE, blotted onto PVDF, incubated with 3 µg/ml S100P at 4°C overnight, bound S100P probed with anti-S100P; both purified
T1 sequence (peptide): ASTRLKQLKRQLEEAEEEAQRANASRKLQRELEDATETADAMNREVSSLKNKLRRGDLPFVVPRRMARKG

[2] = target: lysozyme (UniProt P00698); experiment: as above

B1: S100P (protein, UniProt P25815 1-95)
chain: MTELETAMGMIIDVFSRYSGSEGSTQTLTKGELKVLMEKELPGFLQSGKDKDAVDKLLKDLDANGDAQVDFSEFIVFVAAITSACHKYFEKAGLK
- binding [1]: binds
- binding [2]: no binding (tested: 3 µg/ml S100P)
